# Literature values in patent US20110269799A1 (priority 2008, published 2011).
# Where two headings read alike, the source gives them in different places. At least one compound was matched to its structure with a doubt left.
# Key:
# AF patients [1] = conditions: SPORTIF V, cited from earlier work
# AF patients [2] = conditions: SPORTIF III, cited from earlier work
smiles,measurement,setting,value
CCOC(=O)CN[C@@H](C(=O)N1CC[C@H]1C(=O)NCc1ccc(/C(N)=N\O)cc1)C1CCCCC1 [ximelagatran],Myocardial Infarction,AF patients [1],1.0%
same,Stroke and systemic embolism (per 100 patient years),AF patients [1]; ximelagatran 36 mg b.i.d.,1.6%
same,Myocardial Infarction,AF patients [2],1.1%
same,Stroke and systemic embolism (per 100 patient years),AF patients [2]; ximelagatran 36 mg b.i.d.,1.6%
